Measured values published in PubChem BioAssay AID330 (DTP/NCI, 2004).
The list does not hold the whole screen: it is rich in T/C values a quarter to a half above the control, in often repeated tests (any T/C) and in doses without a T/C. Further doses and runs are listed elsewhere. T/C gives the treated animals as a percentage of the vehicle group. Some doses have a count of surviving animals in place of a T/C: the source files T/C as zero there, which appears to mark a toxic dose or a test without result, not a measured value. Some survivor counts are full or nearly so, which does not show that the dose was tolerated: survival well below the control is almost never listed, so the zero probably covers shortened survival too. Survivors were counted at the toxicity check, usually on the fifth day, unless a day is given; later deaths do not show. Schedules are NCI's codes, taken here to give the interval after Q, in days (D) or hours (H), and the number of doses after X. Some entries hold several experiments; their values stand side by side, smallest first. Some structures stand for samples that the source files as different forms (salt, stereo form or complex); doses refer to the form tested. Brackets with × count equal records among those shown. For survival time, this PubChem deposit counts one and a half times the control or more as active, and values a quarter to a half above the control carry no call in these data; other NCI protocols may use other cut-offs.

Tested on: P388 leukemia ip, CD2F1 mice, survival T/C
Test: NCI In Vivo Anticancer Drug Screen. Data for tumor model P388 Leukemia (intraperitoneal) in CD2F1 (CDF1) mice
Details: T/C endpoint: median survival time, higher T/C = longer survival
[1] = dose: 100.0 mg/kg/injection, schedule: Q01DX005 (ip), vehicle: saline with Tween-80
[2] = dose: 200.0 mg/kg/injection, schedule: Q01DX005 (ip), vehicle: saline with Tween-80
[3] = dose: 25.0 mg/kg/injection, schedule: Q01DX009 (ip), vehicle: saline
[4] = dose: 50.0 mg/kg/injection, schedule: Q01DX009 (ip), vehicle: saline
[5] = dose: 200.0 mg/kg/injection, schedule: Q01DX009 (ip), vehicle: saline
[6] = dose: 400.0 mg/kg/injection, schedule: Q01DX009 (ip), vehicle: saline
[7] = dose: 50.0 mg/kg/injection, schedule: Q01DX005 (ip), vehicle: saline with Tween-80

For `COc1cc2c(cc1OC)CN1CCc3cc(OC)c(OC)cc3[C@@H]1C2`, the survivor count [1] was 5 of 5 and the survivor count [2] was 2 of 5.

For `O=[N+]([O-])c1c(O)c(CNCCCO)cc(CNCCCO)c1O`, the T/C [3] was 128 % of control, the T/C [4] was 129 % of control and the T/C (dose: 100.0 mg/kg/injection, schedule: Q01DX009 (ip), vehicle: saline) was 134 and 138 % of control. For the same compound, the survivor count [5] was 2 of 6 and the survivor count [6] was 0 of 6.

With `N[C@H](C(=O)O)[C@@H]1CC(S(=O)(=O)c2ccccc2)=NO1` the survivor count (dose: 50.0 mg/kg/injection, schedule: Q01DX005 (ip), vehicle: distilled water + Tween-80) was 2 of 6, the survivor count (dose: 100.0 mg/kg/injection, schedule: Q01DX005 (ip), vehicle: distilled water + Tween-80) was 0 of 6 and the survivor count (dose: 200.0 mg/kg/injection, schedule: Q01DX005 (ip), vehicle: distilled water + Tween-80) was 0 of 6.

`O=[Se](=O)(O)O` was tested, and the survivor count (dose: 30.0 mg/kg/injection, schedule: Q01DX005 (ip), vehicle: saline) was 2 of 6, the survivor count (dose: 60.0 mg/kg/injection, schedule: Q01DX005 (ip), vehicle: saline) was 0 of 6 (2×) and the survivor count (dose: 120.0 mg/kg/injection, schedule: Q01DX005 (ip), vehicle: saline) was 0 of 6 (2×). The survivor count (dose: 240.0 mg/kg/injection, schedule: Q01DX005 (ip), vehicle: saline) was 0 of 6 (2×).

In the case of `CN1CCN=C1c1ccc(NC(=O)c2ccc(C(=O)Nc3ccc(C4=NCCN4C)cc3)c([N+](=O)[O-])c2)cc1`, the T/C (dose: 3.13 mg/kg/injection, schedule: Q01DX005 (ip), vehicle: saline with Tween-80) was 127 % of control, the survivor count (dose: 6.25 mg/kg/injection, schedule: Q01DX005 (ip), vehicle: saline with Tween-80) was 0 of 6 and 1 of 6 and the survivor count (dose: 12.5 mg/kg/injection, schedule: Q01DX005 (ip), vehicle: saline with Tween-80) was 0 of 6. The survivor count (dose: 25.0 mg/kg/injection, schedule: Q01DX005 (ip), vehicle: saline with Tween-80) was 0 of 6, the survivor count [7] was 0 of 6 and the survivor count [1] was 0 of 6. The survivor count [2] was 0 of 6.

For `Cc1ccc(S(=O)(=O)Nc2ccc(-c3cc4cc(Cl)ccc4o3)cc2)cc1`, the survivor count [7] was 6 of 6, the survivor count [1] was 6 of 6 and the survivor count [2] was 6 of 6.

In the case of `C/C(=N\NC(=O)c1ccncc1)c1cccc(/C(C)=N/NC(=O)c2ccncc2)n1.O=S(=O)([O-])[O-].[Fe+2]`, the survivor count [1] was 6 of 6 and the survivor count [2] was 2 of 6.

For `O=C1CCCC2=C1c1cc3c(cc1CCN2)OCO3`, the survivor count (dose: 200.0 mg/kg/injection, schedule: Q04DX002 (ip), vehicle: saline with Tween-80) was 0 of 6 and the survivor count (dose: 400.0 mg/kg/injection, schedule: Q04DX002 (ip), vehicle: saline with Tween-80) was 0 of 6.

In the case of `COP(=O)(O)OC.[Ti]`, the survivor count (dose: 100.0 mg/kg/injection, schedule: Q01DX001 (ip), vehicle: saline with Tween-80) was 6 of 6, the survivor count (dose: 200.0 mg/kg/injection, schedule: Q01DX001 (ip), vehicle: saline with Tween-80) was 6 of 6 and the survivor count (dose: 400.0 mg/kg/injection, schedule: Q01DX001 (ip), vehicle: saline with Tween-80) was 6 of 6.

With `Cc1ccc(-[n+]2c3cc(N)c(C)cc3nc3cc(C)c(Nc4ccccc4)cc32)cc1` the survivor count (dose: 100.0 mg/kg/injection, schedule: Q01DX005 (ip), vehicle: saline + Tween-80 + alcohol) was 2 of 6, the survivor count (dose: 200.0 mg/kg/injection, schedule: Q01DX005 (ip), vehicle: saline + Tween-80 + alcohol) was 0 of 6 and the survivor count [2] was 0 of 5.

In the case of `CCN(CC)CCN1C(=O)c2cccc3cc(OC)cc(c23)C1=O`, the T/C (dose: 200.0 mg/kg/injection, schedule: Q01DX005 (ip), vehicle: saline) was 138 and 146 % of control.

With `Cc1cc2[nH]c3c(C#N)c(OC(=O)N(C)C)c(C)c(=O)n3c2cc1C` the survivor count (dose: 120.0 mg/kg/injection, schedule: Q01DX005 (ip), vehicle: saline with Tween-80) was 6 of 6 and the survivor count (dose: 240.0 mg/kg/injection, schedule: Q01DX005 (ip), vehicle: saline with Tween-80) was 6 of 6.

For `CN(C)CCNC1=C(Cl)C(=O)c2ccccc2C1=O`, the survivor count [3] was 1 of 6 and the survivor count [4] was 0 of 6.

In the case of `Cc1cc(/C=C\c2ccc3ccccc3[n+]2C)c(O)c2ncccc12`, the survivor count (dose: 50.0 mg/kg/injection, schedule: Q01DX009 (ip), vehicle: saline with Tween-80) was 2 of 6.

For `C1=C[N-]c2c3c(ccc2=C1)=CC=C[N-]3.C1=C[N-]c2c3c(ccc2=C1)=CC=C[N-]3.O=[N+]([O-])O.[Cu+]`, the survivor count (dose: 12.5 mg/kg/injection, schedule: Q04DX002 (ip), vehicle: saline) was 5 of 6, the survivor count (dose: 100.0 mg/kg/injection, schedule: Q04DX002 (ip), vehicle: suspension in saline) was 0 of 6 and the survivor count (dose: 200.0 mg/kg/injection, schedule: Q04DX002 (ip), vehicle: suspension in saline) was 0 of 6. The survivor count (dose: 400.0 mg/kg/injection, schedule: Q04DX002 (ip), vehicle: suspension in saline) was 0 of 6.

In the case of `CCNC(=O)N1CC(=O)Nc2ccccc21`, the survivor count [2] was 4 of 6.

With `COc1cc(N=Nc2ccc([N+](=O)[O-])cc2)c([OH+]C)cc1[N+]#N.COc1cc(N=Nc2ccc([N+](=O)[O-])cc2)c([OH+]C)cc1[N+]#N.[Cl][Zn][Cl]` the T/C [5] was 127 % of control and the survivor count [6] was 2 of 6.

`N#CSCCSC#N` was tested, and the survivor count (dose: 25.0 mg/kg/injection, schedule: Q04DX002 (ip), vehicle: Klucel (hydroxypropylcellulose) (HPC)) was 0 of 6, the survivor count (dose: 50.0 mg/kg/injection, schedule: Q04DX002 (ip), vehicle: Klucel (hydroxypropylcellulose) (HPC)) was 0 of 6 and the survivor count (dose: 100.0 mg/kg/injection, schedule: Q04DX002 (ip), vehicle: Klucel (hydroxypropylcellulose) (HPC)) was 0 of 6.

`O=C1C=CC(=O)c2cc(Cl)c(Cl)cc21` was tested, and the survivor count (dose: 9.4 mg/kg/injection, schedule: Q01DX009 (ip), vehicle: saline with Tween-80) was 3 of 6 and the survivor count (dose: 25.0 mg/kg/injection, schedule: Q04DX003 (ip), vehicle: saline with Tween-80) was 2 of 6.

In the case of `c1cc2ccc3ccc(C4CO4)c4ccc(c1)c2c34` (stereo not given), the survivor count (dose: 50.0 mg/kg/injection, schedule: Q01DX009 (ip), vehicle: Klucel (hydroxypropylcellulose) (HPC)) was 5 of 6, the survivor count (dose: 100.0 mg/kg/injection, schedule: Q01DX009 (ip), vehicle: Klucel (hydroxypropylcellulose) (HPC)) was 3 of 6 and the survivor count (dose: 200.0 mg/kg/injection, schedule: Q01DX009 (ip), vehicle: Klucel (hydroxypropylcellulose) (HPC)) was 1 of 6.
